# These are yes or no findings as the source states them, for the method shown. In cells and extracts the contact can be indirect. Some results given as binding are weak or reduced against the parent protein; the word gives no strength.
# Amino acid sequences for entries named in this document (tags omitted). A change or cut given only in a name is not applied to a line headed by its entry. Residues count along the entry.
# UniProt O95863: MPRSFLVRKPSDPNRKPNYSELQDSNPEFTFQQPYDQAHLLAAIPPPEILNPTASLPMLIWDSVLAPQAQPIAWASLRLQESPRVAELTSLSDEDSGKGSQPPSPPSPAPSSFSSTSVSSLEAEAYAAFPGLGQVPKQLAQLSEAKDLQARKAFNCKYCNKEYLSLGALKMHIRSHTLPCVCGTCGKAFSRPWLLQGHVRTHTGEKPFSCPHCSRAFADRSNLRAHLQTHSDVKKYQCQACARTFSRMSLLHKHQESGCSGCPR
# UniProt P63165, residues 1-97: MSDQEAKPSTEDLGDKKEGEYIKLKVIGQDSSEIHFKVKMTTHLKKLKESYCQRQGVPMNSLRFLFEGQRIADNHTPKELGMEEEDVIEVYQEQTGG
# UniProt P05412: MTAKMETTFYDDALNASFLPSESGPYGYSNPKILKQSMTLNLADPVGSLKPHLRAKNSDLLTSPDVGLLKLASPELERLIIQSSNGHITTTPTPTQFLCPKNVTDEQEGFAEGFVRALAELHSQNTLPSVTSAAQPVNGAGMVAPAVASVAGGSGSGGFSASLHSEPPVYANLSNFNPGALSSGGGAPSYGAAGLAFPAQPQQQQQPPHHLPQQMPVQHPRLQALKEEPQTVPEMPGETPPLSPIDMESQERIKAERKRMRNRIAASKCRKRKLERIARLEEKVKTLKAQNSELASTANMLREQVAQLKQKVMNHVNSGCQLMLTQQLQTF
# B1: TGFβ receptor I (TβRI), endogenous (receptor, UniProt P36897 34-503)
# chain: LQCFCHLCTKDNFTCVTDGLCFVSVTETTDKVIHNSMCIAEIDLIPRDRPFVCAPSSKTGSVTTTYCCNQDHCNKIELPTTVKSSPGLGPVELAAVIAGPVCFVCISLMLMVYICHNRTVIHHRVPNEEDPSLDRPFISEGTTLKDLIYDMTTSGSGSGLPLLVQRTIARTIVLQESIGKGRFGEVWRGKWRGEEVAVKIFSSREERSWFREAEIYQTVMLRHENILGFIAADNKDNGTWTQLWLVSDYHEHGSLFDYLNRYTVTVEGMIKLALSTASGLAHLHMEIVGTQGKPAIAHRDLKSKNILVKKNGTCCIADLGLAVRHDSATDTIDIAPNHRVGTKRYMAPEVLDDSINMKHFESFKRADIYAMGLVFWEIARRCSIGGIHEDYQLPYYDLVPSDPSVEEMRKVVCEQKLRPNIPNRWQSCEALRVMAKIMRECWYANGAARLTALRIKKTLSQLSQQEGIKM
# B2: Hairy and enhancer of split-1 (Hes1), endogenous (protein, UniProt Q14469 1-280)
# chain: MPADIMEKNSSSPVAATPASVNTTPDKPKTASEHRKSSKPIMEKRRRARINESLSQLKTLILDALKKDSSRHSKLEKADILEMTVKHLRNLQRAQMTAALSTDPSVLGKYRAGFSECMNEVTRFLSTCEGVNTEVRTRLLGHLANCMTQINAMTYPGQPHPALQAPPPPPPGPGGPQHAPFAPPPPLVPIPGGAAPPPGGAPCKLGSQAGEAAKVFGGFQVVPAPDGQFAFLIPNGAFAHSGPVIPVYTSNSGTSVGPNAVSPSSGPSLTADSMWRPWRN
# Legend:
# [1] = target: Snail1 (endogenous) (human (endogenous in PC-3U, MDA-MB-231, A549)) (UniProt O95863); assay: proximity ligation; endogenous proteins in A549 cells, untreated or treated with TGFβ (supplementary figure)
# [2] = target: Snail1 (endogenous) (human (endogenous in PC-3U, MDA-MB-231, A549)) (UniProt O95863); assay: proximity ligation; endogenous proteins in MDA-MB-231 cells, untreated or treated with TGFβ (supplementary figures)
# [3] = target: Snail1 (endogenous) (human (endogenous in PC-3U, MDA-MB-231, A549)) (UniProt O95863); assay: proximity ligation; endogenous proteins in fixed, permeabilised PC-3U cells, untreated or treated with TGFβ; primary antibodies from different species, PLA probes; signals counted with Blob finder
# HA-Snail1 (wild type) = HA-Snail1 (wild type) (UniProt O95863); assay: proximity ligation; PC-3U cells transiently transfected with HA-WT-Snail1 or Mutant-HA-Snail1, treated with TGFβ; anti-rabbit Sumo1 and anti-mouse HA antibodies, PLA probes
# K234R mutant HA-Snail1 = K234R mutant HA-Snail1 (UniProt O95863); assay: as above
# [4] = target: Snail1 (endogenous) (human (endogenous in PC-3U, MDA-MB-231, A549)) (UniProt O95863); assay: co-IP; endogenous proteins; PC-3U cells treated with TGFβ (10 ng/ml) for the indicated times, lysed in RIPA buffer; primary antibody overnight, Protein G Sepharose at 4°C, three washes with RIPA; immunoblot
# [5] = target: Snail1 (endogenous) (human (endogenous in PC-3U, MDA-MB-231, A549)) (UniProt O95863); assay: proximity ligation; endogenous proteins in MDA-MB-231 cells, untreated or treated with TGFβ (supplementary figures); remark: listed apart in the source
# [6] = target: Snail1 (endogenous) (human (endogenous in PC-3U, MDA-MB-231, A549)) (UniProt O95863); assay: proximity ligation; endogenous proteins in fixed, permeabilised PC-3U cells, untreated or treated with TGFβ; primary antibodies from different species, PLA probes; signals counted with Blob finder; remark: listed apart in the source
# [7] = target: Snail1 (endogenous) (human (endogenous in PC-3U, MDA-MB-231, A549)) (UniProt O95863); assay: co-IP; endogenous proteins; PC-3U cells treated with TGFβ (10 ng/ml) for the indicated times, lysed in RIPA buffer; primary antibody overnight, Protein G Sepharose at 4°C, three washes with RIPA; immunoblot; remark: listed apart in the source
# [8] = target: T1, TGFβ receptor I (TβRI), endogenous (human (endogenous in PC-3U, MDA-MB-231)) (UniProt P36897); assay: as above
# T1 sequence: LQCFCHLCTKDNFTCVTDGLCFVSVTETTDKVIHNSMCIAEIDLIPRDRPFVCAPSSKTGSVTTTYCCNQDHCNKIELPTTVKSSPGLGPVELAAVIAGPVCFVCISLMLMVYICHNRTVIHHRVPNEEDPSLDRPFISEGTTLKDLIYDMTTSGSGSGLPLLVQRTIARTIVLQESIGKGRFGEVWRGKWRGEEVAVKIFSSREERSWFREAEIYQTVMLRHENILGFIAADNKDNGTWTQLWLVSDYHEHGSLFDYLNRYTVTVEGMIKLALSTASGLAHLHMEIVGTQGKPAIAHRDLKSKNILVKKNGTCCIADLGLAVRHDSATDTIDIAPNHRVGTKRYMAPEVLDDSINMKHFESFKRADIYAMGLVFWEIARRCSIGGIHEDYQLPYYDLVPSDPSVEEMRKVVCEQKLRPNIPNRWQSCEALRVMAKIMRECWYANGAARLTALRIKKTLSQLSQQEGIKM
# [9] = target: T1, TGFβ receptor I (TβRI), endogenous (human (endogenous in PC-3U, MDA-MB-231)); assay: proximity ligation; endogenous proteins in fixed, permeabilised PC-3U cells, untreated or treated with TGFβ; primary antibodies from different species, PLA probes; signals counted with Blob finder
molecule,measurement,setting,value
Sumo1 (endogenous) (from UniProt P63165 1-97),binding,[1],binds
same,binding,[2],binds
same,binding,[3],binds
same,binding,HA-Snail1 (wild type),binds
same,binding,K234R mutant HA-Snail1,no binding
c-Jun (endogenous) (from UniProt P05412 1-331),binding,[4],binds
same,binding,[3],binds
B1,binding,[5],binds
same,binding,[6],binds
B2,binding,[7],binds
same,binding,[8],binds
same,binding,[6],binds
same,binding,[9],binds

# — paper PMC5716685
